Results are given in words; binding and its absence hold for the method and conditions named. In cells and extracts the contact can be indirect. Some entries that bind do so weakly or less than the wild type. For part of these data: Sequences can lack the tags named with a protein. One block for each substance: values may come before it.
Experiments:
FLAG-tagged TRPC6 = target: T1, FLAG-tagged TRPC6 (UniProt Q61143); test: co-IP; HEK293 cells expressing FLAG-TRPC6 and β1AR-EGFP; lysis in 1% Triton X-100, 140 mM NaCl, 1 mM EDTA, 20 mM Tris-HCl pH 7.4; FLAG M2 agarose 12 h; elution with FLAG peptide; western blot
T1 sequence: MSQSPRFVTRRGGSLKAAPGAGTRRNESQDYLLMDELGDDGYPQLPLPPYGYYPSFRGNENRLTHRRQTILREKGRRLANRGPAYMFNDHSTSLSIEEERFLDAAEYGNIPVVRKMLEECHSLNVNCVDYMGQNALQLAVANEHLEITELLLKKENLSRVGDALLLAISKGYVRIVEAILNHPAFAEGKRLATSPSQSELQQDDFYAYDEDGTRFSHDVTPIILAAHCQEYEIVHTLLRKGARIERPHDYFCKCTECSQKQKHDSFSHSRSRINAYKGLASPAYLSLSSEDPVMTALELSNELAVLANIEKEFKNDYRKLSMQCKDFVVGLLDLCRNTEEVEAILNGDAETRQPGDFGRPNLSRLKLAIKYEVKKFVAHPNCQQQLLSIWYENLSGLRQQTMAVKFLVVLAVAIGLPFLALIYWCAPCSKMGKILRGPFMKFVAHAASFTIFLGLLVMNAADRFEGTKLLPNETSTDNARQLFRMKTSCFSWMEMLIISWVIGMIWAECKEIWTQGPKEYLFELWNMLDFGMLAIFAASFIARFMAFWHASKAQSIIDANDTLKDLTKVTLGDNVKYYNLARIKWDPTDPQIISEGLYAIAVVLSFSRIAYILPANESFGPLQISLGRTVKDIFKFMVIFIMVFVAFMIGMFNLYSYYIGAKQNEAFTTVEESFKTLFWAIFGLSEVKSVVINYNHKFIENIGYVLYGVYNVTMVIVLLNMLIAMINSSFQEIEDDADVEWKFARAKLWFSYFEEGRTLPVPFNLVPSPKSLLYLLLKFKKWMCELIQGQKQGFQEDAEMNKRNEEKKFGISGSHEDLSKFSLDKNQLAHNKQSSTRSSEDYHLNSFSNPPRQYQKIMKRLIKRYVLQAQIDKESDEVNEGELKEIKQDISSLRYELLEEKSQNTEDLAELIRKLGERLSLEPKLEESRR

The chains behind the UniProt entries cited, without tags or fusion partners.
UniProt P08588: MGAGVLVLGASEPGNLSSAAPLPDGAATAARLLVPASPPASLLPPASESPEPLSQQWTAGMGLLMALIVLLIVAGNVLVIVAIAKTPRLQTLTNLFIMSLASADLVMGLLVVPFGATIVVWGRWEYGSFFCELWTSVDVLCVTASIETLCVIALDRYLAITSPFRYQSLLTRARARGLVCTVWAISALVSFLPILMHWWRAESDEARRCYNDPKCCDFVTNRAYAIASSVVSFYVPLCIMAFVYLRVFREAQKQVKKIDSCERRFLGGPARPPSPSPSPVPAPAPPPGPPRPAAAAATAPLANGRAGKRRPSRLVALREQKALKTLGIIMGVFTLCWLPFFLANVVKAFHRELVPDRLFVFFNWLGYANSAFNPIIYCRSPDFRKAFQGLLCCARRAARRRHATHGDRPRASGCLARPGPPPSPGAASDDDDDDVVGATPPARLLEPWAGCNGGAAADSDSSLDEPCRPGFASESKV
UniProt P34971: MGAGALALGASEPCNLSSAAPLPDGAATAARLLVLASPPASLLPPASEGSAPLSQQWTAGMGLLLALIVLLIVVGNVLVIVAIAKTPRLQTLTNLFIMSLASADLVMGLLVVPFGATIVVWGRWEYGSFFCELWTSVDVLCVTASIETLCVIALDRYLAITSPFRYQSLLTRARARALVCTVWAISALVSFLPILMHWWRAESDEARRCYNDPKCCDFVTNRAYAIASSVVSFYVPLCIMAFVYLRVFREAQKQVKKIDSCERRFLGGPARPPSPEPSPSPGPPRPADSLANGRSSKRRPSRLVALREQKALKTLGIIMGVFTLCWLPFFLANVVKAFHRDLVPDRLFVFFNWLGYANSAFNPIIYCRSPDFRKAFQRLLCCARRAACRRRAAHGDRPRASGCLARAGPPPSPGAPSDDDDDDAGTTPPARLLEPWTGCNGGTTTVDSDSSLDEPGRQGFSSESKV
UniProt P18090: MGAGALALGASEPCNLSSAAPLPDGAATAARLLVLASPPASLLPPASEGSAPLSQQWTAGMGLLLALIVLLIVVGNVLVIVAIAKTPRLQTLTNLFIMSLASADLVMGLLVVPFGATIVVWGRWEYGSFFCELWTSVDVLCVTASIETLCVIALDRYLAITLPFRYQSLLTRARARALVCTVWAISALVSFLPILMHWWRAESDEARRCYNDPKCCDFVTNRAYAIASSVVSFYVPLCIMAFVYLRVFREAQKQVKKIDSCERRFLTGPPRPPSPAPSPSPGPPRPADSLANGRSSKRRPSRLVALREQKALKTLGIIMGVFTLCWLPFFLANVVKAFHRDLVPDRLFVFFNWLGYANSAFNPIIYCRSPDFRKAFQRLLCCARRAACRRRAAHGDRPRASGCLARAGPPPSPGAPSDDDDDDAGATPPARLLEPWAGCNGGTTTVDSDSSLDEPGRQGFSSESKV
UniProt Q91YI4: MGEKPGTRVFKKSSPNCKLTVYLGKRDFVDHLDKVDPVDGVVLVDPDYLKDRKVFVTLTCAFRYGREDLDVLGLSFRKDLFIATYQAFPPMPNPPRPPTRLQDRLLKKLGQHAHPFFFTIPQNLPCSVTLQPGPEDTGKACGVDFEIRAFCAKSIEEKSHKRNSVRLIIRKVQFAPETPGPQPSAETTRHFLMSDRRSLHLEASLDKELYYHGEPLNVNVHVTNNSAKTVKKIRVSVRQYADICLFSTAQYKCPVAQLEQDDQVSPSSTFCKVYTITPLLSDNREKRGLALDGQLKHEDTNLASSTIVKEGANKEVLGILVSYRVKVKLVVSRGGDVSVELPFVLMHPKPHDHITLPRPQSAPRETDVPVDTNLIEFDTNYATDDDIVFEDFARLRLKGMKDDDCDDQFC
UniProt P29067: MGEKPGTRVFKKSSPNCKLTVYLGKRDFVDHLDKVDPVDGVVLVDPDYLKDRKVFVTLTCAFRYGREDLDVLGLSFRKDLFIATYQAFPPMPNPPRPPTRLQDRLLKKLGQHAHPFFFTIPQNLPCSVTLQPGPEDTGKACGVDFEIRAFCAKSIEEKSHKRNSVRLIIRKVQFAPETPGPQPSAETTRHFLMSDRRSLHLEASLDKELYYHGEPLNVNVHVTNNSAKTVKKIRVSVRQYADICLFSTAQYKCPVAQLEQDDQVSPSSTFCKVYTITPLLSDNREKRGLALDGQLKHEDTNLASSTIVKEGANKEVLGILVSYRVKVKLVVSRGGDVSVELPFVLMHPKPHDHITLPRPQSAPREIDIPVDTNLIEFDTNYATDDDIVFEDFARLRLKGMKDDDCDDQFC
UniProt P63095: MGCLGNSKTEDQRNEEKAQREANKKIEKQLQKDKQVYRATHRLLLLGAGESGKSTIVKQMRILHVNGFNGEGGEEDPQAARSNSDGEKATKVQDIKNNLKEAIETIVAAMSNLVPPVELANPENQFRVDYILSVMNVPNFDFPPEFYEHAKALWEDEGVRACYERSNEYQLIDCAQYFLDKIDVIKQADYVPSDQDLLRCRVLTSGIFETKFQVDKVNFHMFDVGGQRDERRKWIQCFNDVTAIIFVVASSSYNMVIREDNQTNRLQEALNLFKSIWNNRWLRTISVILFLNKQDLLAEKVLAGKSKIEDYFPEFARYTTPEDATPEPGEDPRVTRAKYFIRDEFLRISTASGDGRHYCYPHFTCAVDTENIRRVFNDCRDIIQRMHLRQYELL

β1AR-Rluc [1] = target: β1AR-Rluc (UniProt P08588); test: FRET or BRET; BRET in HEK293 cells transfected with β1AR-Rluc and Gαs-YFP; NE stimulation, with or without Zn2+
[2] = target: T2, TRPC6 (transient receptor potential canonical 6), endogenous in mouse heart (mouse (endogenous in heart tissue and adult cardiomyocytes)) (UniProt Q61143); test: proximity ligation; Duolink PLA Fluorescence on fixed mouse heart cryosections (SAN, LV apex and base; with or without STZ) and isolated adult mouse cardiomyocytes (WT or TRPC6(-/-); with or without formamide); rabbit anti-β1AR with mouse anti-TRPC6 or anti-βArr2; puncta counted
T2 sequence: T1 sequence

[3] = target: T3, TRPC6, endogenous in neonatal rat cardiomyocytes (rat (endogenous in NRCMs)) (UniProt Q99N78); test: proximity ligation; PLA of TRPC6 and β1AR in neonatal rat cardiomyocytes with or without overexpression of the Snapin-PDZ-linker
T3 sequence: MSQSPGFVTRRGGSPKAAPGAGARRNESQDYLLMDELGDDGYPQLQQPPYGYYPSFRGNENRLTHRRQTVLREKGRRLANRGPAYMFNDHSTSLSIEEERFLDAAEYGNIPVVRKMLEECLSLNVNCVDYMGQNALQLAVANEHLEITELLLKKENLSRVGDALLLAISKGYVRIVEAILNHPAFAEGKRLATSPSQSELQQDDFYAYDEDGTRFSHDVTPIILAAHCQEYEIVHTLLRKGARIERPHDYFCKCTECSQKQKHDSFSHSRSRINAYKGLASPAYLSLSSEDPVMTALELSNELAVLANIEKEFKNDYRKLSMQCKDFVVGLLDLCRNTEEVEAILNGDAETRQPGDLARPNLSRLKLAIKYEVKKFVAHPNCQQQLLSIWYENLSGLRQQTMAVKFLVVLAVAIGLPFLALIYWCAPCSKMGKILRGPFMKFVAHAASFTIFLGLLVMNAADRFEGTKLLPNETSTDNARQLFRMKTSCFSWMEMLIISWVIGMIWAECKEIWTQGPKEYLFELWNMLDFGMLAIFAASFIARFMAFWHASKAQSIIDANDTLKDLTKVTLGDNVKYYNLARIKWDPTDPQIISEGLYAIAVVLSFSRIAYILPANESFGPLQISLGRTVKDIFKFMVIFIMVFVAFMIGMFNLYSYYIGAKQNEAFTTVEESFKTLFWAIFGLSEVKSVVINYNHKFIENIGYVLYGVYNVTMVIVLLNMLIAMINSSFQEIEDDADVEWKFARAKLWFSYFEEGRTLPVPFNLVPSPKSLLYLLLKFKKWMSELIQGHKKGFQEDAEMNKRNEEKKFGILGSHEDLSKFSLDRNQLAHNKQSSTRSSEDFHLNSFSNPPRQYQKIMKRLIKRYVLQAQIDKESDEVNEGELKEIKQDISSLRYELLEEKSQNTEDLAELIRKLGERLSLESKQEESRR

[4] = target: β1-adrenoceptor (β1AR), endogenous in mouse heart (mouse (endogenous in heart tissue and adult cardiomyocytes)) (UniProt P34971); test: proximity ligation; Duolink PLA Fluorescence on fixed mouse heart cryosections (SAN, LV apex and base; with or without STZ) and isolated adult mouse cardiomyocytes (WT or TRPC6(-/-); with or without formamide); rabbit anti-β1AR with mouse anti-TRPC6 or anti-βArr2; puncta counted
β1AR-Rluc [5] = target: β1AR-Rluc (UniProt P08588); test: FRET or BRET; BRET in HEK293 cells transfected with β1AR-Rluc and βArr2-YFP along with pCI-neo, TRPC6(WT), TRPC6(DN), TRPC6(KYD) or TRPC3 vectors; ISO 10 μM for 30 min; coelenterazine h 5 μM; with TPEN or EGTA in one panel

binding [2]: binds
Substance: β1-adrenoceptor (β1AR), endogenous in mouse heart (from UniProt P34971 1-466) (receptor)

binding [3]: binds
Substance: β1AR, endogenous in neonatal rat cardiomyocytes (from UniProt P18090 1-466) (receptor)

binding [4]: binds
Substance: β-Arrestin 2 (βArr2), endogenous in adult mouse cardiomyocytes (from UniProt Q91YI4 1-410)

binding (β1AR-Rluc [5]): binds
Substance: βArr2-YFP (from UniProt P29067 1-410)

Continued, substance first:

Substance: EGFP-fused β1AR (from UniProt P08588 1-477) (receptor)
binding (FLAG-tagged TRPC6): binds

Substance: Gαs-YFP (from UniProt P63095 1-394)
binding (β1AR-Rluc [1]): binds

Source: publication PMC9606288
